From the supplement of paper PMC10849652
The other results are listed elsewhere or left out.

Protein sequences, listed by entry. Tags and fused reporters are not part of them. Lines headed by an entry give the natural chain unless they say otherwise; changes in a name come on top.
UniProt Q9Y2V2: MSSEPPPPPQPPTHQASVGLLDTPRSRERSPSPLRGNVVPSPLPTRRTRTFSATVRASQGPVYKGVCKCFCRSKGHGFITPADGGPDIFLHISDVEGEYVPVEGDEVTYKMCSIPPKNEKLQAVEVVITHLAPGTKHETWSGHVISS
UniProt Q9HA77: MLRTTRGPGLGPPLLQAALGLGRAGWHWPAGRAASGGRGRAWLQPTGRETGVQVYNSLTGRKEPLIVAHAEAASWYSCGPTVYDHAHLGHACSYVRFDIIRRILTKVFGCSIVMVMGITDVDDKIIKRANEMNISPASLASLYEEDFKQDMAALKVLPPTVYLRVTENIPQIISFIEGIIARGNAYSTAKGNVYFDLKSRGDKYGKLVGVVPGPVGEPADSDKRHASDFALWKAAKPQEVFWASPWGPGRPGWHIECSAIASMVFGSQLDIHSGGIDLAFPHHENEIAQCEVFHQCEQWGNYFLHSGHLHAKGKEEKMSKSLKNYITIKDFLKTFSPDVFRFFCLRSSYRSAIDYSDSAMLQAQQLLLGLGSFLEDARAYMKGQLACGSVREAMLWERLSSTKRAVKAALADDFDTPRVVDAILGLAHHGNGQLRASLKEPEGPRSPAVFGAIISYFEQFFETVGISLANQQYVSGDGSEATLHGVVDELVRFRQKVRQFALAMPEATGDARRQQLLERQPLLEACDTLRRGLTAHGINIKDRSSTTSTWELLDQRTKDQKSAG
UniProt P08962, whole entry, looked up: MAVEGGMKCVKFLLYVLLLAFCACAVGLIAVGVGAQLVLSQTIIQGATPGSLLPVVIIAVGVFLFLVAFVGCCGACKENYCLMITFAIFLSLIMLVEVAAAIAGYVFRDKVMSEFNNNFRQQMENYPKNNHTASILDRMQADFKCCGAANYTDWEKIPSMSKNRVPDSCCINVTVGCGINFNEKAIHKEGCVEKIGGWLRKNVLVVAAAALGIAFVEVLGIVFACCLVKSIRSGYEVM
UniProt Q3V6T2: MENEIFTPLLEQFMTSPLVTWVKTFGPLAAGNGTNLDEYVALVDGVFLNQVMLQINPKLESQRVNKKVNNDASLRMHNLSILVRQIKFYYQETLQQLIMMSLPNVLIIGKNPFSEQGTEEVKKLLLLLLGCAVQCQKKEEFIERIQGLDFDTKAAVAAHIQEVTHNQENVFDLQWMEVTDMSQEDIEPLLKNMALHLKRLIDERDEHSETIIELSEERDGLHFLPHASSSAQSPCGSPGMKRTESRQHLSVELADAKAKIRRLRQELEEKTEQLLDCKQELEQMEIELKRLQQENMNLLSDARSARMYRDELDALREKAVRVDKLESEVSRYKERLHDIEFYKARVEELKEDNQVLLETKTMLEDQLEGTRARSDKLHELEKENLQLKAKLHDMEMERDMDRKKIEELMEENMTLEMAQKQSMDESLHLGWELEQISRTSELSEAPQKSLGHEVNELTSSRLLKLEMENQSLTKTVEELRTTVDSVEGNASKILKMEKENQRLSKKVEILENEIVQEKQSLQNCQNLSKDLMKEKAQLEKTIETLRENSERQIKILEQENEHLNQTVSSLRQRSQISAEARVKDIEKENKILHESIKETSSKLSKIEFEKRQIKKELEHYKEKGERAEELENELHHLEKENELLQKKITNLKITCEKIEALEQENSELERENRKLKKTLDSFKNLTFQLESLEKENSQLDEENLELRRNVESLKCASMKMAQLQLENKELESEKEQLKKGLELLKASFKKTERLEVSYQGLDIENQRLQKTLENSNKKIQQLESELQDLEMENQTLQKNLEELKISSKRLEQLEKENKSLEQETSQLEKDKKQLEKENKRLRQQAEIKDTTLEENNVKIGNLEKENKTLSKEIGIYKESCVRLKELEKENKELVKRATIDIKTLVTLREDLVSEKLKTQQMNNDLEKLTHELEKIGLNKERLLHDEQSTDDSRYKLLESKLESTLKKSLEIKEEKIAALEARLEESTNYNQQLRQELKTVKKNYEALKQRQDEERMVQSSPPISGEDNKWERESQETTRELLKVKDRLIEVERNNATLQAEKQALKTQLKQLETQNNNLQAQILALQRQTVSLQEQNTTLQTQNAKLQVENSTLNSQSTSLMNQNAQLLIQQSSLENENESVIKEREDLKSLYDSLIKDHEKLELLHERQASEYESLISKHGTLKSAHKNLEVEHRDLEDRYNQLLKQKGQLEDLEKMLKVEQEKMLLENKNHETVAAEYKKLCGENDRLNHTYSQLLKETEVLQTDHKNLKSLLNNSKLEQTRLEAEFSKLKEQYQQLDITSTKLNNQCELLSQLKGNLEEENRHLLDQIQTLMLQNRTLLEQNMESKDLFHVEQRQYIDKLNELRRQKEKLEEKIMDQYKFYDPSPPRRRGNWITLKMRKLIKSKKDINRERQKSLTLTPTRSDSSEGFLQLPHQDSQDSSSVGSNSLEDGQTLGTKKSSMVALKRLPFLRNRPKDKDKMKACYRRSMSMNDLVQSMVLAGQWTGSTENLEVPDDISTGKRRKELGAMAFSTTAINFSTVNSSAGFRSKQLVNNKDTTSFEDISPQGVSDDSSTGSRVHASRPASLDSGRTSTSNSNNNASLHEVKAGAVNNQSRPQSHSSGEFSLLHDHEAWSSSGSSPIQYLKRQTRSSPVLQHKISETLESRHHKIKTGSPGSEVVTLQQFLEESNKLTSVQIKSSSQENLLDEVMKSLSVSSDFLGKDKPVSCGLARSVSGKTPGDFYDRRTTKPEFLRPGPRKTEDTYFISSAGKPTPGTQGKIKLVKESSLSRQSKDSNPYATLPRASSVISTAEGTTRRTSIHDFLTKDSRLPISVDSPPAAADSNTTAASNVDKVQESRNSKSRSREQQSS
UniProt P49589: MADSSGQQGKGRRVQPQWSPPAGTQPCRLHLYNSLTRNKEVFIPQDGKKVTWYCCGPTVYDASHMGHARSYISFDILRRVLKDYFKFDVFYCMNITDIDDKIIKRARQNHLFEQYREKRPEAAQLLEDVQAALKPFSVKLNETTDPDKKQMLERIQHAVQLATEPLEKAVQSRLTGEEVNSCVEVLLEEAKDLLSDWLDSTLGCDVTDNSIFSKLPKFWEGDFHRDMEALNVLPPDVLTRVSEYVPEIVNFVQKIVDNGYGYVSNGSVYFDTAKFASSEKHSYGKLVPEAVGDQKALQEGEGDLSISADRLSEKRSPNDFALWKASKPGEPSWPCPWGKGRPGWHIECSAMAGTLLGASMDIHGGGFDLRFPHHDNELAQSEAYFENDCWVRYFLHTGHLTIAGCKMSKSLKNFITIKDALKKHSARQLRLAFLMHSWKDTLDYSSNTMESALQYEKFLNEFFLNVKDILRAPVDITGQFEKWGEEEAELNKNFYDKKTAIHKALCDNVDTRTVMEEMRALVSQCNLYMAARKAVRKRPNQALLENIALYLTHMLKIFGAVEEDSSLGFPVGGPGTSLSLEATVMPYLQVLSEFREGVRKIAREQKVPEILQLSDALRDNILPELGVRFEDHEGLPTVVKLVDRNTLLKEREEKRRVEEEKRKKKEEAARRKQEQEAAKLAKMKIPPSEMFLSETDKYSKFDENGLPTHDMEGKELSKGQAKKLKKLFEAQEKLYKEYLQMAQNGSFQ
UniProt Q86WR0: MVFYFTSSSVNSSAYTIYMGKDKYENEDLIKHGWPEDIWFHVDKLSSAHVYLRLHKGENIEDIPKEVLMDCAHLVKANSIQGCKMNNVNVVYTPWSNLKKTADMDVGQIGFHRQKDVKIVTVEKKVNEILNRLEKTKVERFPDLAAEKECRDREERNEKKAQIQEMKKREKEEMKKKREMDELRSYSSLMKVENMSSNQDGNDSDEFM
UniProt Q9P219: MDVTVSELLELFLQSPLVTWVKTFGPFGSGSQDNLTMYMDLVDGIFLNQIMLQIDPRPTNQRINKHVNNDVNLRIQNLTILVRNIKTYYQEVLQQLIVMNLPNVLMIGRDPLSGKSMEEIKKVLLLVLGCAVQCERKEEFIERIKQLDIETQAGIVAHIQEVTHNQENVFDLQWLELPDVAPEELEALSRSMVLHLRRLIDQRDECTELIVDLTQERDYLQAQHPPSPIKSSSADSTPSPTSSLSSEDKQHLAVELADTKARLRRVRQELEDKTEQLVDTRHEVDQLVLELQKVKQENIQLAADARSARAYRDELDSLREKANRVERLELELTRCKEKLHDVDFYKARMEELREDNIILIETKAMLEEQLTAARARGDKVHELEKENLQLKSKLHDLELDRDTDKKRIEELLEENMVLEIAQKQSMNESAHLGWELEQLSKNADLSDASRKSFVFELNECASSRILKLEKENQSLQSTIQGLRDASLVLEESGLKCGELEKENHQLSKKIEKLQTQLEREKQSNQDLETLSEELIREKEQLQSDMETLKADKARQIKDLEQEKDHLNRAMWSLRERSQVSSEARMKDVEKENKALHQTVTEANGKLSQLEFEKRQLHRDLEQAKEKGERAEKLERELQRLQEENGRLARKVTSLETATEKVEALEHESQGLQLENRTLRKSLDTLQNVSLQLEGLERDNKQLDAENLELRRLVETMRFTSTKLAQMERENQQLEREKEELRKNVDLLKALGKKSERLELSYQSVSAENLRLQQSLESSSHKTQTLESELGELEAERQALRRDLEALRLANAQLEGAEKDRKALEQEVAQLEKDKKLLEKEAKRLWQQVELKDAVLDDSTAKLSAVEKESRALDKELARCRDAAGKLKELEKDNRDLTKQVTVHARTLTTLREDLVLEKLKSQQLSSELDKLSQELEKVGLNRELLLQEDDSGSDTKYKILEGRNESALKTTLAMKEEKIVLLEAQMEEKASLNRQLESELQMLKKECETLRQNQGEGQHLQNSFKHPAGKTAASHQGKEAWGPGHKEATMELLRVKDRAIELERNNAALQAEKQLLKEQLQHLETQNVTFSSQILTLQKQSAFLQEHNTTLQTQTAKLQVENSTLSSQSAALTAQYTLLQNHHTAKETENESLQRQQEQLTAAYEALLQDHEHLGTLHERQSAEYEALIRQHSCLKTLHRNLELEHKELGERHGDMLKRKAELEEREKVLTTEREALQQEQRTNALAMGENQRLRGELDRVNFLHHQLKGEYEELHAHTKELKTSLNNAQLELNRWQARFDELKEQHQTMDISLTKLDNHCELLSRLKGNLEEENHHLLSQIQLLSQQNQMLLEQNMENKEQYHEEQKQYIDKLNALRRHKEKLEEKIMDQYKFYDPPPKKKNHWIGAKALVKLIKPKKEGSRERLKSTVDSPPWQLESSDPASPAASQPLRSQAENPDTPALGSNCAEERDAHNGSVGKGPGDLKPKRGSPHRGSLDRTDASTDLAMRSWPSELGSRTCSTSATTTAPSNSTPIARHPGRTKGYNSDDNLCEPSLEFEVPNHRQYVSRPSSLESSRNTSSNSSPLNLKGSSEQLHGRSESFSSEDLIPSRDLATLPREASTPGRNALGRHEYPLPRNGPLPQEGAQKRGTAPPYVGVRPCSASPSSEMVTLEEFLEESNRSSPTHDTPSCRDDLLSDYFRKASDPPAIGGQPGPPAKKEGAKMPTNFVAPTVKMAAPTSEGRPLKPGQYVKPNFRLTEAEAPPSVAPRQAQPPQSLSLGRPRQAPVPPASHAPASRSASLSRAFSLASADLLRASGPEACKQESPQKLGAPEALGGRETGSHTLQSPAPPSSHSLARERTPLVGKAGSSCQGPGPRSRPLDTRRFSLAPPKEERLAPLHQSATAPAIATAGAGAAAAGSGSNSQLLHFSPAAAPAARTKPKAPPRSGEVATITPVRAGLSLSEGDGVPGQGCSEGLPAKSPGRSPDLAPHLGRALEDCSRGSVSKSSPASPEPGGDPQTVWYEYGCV
UniProt P48509: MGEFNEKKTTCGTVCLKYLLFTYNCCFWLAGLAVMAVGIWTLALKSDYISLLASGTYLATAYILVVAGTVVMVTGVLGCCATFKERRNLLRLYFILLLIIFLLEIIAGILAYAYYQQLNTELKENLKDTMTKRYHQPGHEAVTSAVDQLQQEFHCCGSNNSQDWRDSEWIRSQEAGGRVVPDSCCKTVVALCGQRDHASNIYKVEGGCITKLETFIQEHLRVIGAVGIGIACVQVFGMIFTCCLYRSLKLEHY
UniProt O95810: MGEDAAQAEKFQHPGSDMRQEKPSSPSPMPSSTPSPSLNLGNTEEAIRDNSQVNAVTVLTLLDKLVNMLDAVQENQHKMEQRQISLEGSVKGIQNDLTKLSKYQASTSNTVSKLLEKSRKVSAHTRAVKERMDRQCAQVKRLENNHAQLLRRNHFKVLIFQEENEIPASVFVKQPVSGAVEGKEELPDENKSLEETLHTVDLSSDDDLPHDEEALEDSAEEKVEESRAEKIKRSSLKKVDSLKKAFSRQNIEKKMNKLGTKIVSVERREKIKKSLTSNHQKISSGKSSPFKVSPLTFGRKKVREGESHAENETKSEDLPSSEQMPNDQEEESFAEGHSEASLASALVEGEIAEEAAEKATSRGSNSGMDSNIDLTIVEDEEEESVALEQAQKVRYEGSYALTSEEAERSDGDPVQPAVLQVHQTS

Columns and labels:
Assay in all cases: log2 fold change, soluble protein after heating vs DMSO (PISA); higher = thermal stabilisation; K562 lysate, 10 uM; active = over 0.2 and 3.5 SD of the protein, either way, in both replicates (recomputed)
vemurafenib = compound: CCCS(=O)(=O)Nc1ccc(F)c(C(=O)c2c[nH]c3ncc(-c4ccc(Cl)cc4)cc23)c1F [vemurafenib]
Procedure, shortened: (§1)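 To prepare the extract, K562 pellets were dounce-homogenised in PBS pH 7.4 with 1 mM MgCl2, giving crude material at 1 mg/mL protein. This was treated with 10 μM compound for 30 min, then heated in aliquots for 3 min over 48°C-58°C before pooling and addition of NP-40 to 0.5% at 4°C. Centrifugation at 21,000xg for 90 min left soluble protein in the supernatant, which TMTpro 16plex LC-MS/MS quantified with equalised channel sums. Results are log-two fold changes in thermal stability compared with solvent controls, from duplicates.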

[1] = compound: CCCS(=O)(=O)Nc1ccc(F)c(C(=O)c2c[nH]c3ncc(Cl)cc23)c1F
Procedure, shortened: as §1

barasertib = compound: CCN(CCCOc1ccc2c(Nc3cc(CC(=O)Nc4cccc(F)c4)[nH]n3)ncnc2c1)CCOP(=O)(O)O [barasertib]
Procedure, shortened: as §1

[2] = compound: CC[C@@H]1C(=O)N(C)c2cnc(Nc3ccc(C(=O)NC4CCN(C)CC4)cc3OC)nc2N1C1CCCC1
Procedure, shortened: as §1

volasertib = compound: CC[C@@H]1C(=O)N(C)c2cnc(Nc3ccc(C(=O)N[C@H]4CC[C@H](N5CCN(CC6CC6)CC5)CC4)cc3OC)nc2N1C(C)C [volasertib]
Procedure, shortened: as §1

[3] = compound: CCn1c(C(=O)N(C2CC2)C2CC2)cc2c3c(ncn3C)c(Nc3cc(C)n(C)n3)nc21
Procedure, shortened: as §1

[4] = compound: CCn1cc(-c2ccnc3[nH]c(-c4cccc(CN(C)C)c4)cc23)c(-c2ccc(NC(=O)N(C)C)cc2)n1
Procedure, shortened: as §1

[5] = compound: CN1CCC(CNc2ccc3ncc(-c4cccc(OC(F)(F)F)c4)n3n2)CC1
Procedure, shortened: as §1

saracatinib = compound: CN1CCN(CCOc2cc(OC3CCOCC3)c3c(Nc4c(Cl)ccc5c4OCO5)ncnc3c2)CC1 [saracatinib]
Procedure, shortened: as §1

sotrastaurin = compound: CN1CCN(c2nc(C3=C(c4c[nH]c5ccccc45)C(=O)NC3=O)c3ccccc3n2)CC1 [sotrastaurin]
Procedure, shortened: as §1

alvocidib = compound: CN1CC[C@H](c2c(O)cc(O)c3c(=O)cc(-c4ccccc4Cl)oc23)[C@H](O)C1 [alvocidib]
Procedure, shortened: as §1

Tubastatin A = compound: CN1CCc2c(c3ccccc3n2Cc2ccc(C(=O)NO)cc2)C1 [Tubastatin A]
Procedure, shortened: as §1

[6] = compound: CNC(=O)C1=CC=CC=C1NC2=NC(=NC=C2Cl)NC3=C(C=C(C=C3)N4CCOCC4)OC
Procedure, shortened: as §1

defactinib = compound: CNC(=O)c1ccc(Nc2ncc(C(F)(F)F)c(NCc3nccnc3N(C)S(C)(=O)=O)n2)cc1 [defactinib]
Procedure, shortened: as §1

[7] = compound: CNc1nc(-c2ccc3c(N)n[nH]c3c2)cc(N2C[C@@H](C(=O)NC3CCCCC3)CC[C@H]2C)n1
Procedure, shortened: as §1

encorafenib = compound: COC(=O)N[C@@H](C)CNc1nccc(-c2cn(C(C)C)nc2-c2cc(Cl)cc(NS(C)(=O)=O)c2F)n1 [encorafenib]
Procedure, shortened: as §1

[8] = compound: COC(=O)[C@H](CCSC)NC(=O)C1=C(C=C(C=C1)NC[C@H](CS)N)C2=CC=CC=C2
Procedure, shortened: as §1

alisertib = compound: COc1cc(Nc2ncc3c(n2)-c2ccc(Cl)cc2C(c2c(F)cccc2OC)=NC3)ccc1C(=O)O [alisertib]
Procedure, shortened: as §1

[9] = compound: COc1cc2nc(-c3cc(F)ccc3O)nc(N[C@@H]3CNC[C@H]3C(C)(C)O)c2cc1OC
Procedure, shortened: as §1

gefitinib = compound: COc1cc2ncnc(Nc3ccc(F)c(Cl)c3)c2cc1OCCCN1CCOCC1 [gefitinib]
Procedure, shortened: as §1

Target | log2 fold change (vemurafenib) | log2 fold change [1] | log2 fold change (barasertib) | log2 fold change [2] | log2 fold change (volasertib) | log2 fold change [3] | log2 fold change [4] | log2 fold change [5] | log2 fold change (saracatinib) | log2 fold change (sotrastaurin) | log2 fold change (alvocidib) | log2 fold change (Tubastatin A) | log2 fold change [6] | log2 fold change (defactinib) | log2 fold change [7] | log2 fold change (encorafenib) | log2 fold change [8] | log2 fold change (alisertib) | log2 fold change [9] | log2 fold change (gefitinib)
CARHSP1 (UniProt Q9Y2V2) | inactive: 0.032 | inactive: -0.015 | inactive: 0.024 | inactive: 0.033 | inactive: -0.024 | inactive: -0.061 | inactive: -0.02 | inactive: 0.044 | inactive: 0 | inactive: -0.042 | inactive: 0.031 | inactive: 0.065 | inactive: 0.009 | inactive: -0.033 | inactive: 0.078 | inactive: -0.013 | inactive: -0.055 | inactive: -0.014 | inactive: 0.01 | inactive: -0.029
CARS2 (UniProt Q9HA77) | inactive: 0.033 | inactive: 0.03 | inactive: 0 | inactive: -0.082 | inactive: -0.071 | inactive: -0.001 | inactive: -0.02 | inactive: 0.073 | inactive: 0.058 | inactive: -0.019 | inactive: 0.025 | inactive: 0.023 | inactive: -0.013 | inactive: 0.023 | inactive: -0.04 | inactive: 0.016 | inactive: 0.054 | inactive: -0.045 | inactive: 0.051 | inactive: -0.068
CARM1 (UniProt Q86X55) | inactive: 0.002 | inactive: 0.007 | inactive: -0.005 | inactive: -0.054 | inactive: -0.021 | inactive: -0.004 | inactive: -0.098 | inactive: 0.035 | inactive: -0.005 | inactive: -0.025 | inactive: -0.015 | inactive: 0.021 | inactive: -0.053 | inactive: -0.047 | inactive: 0.001 | inactive: -0.012 | inactive: -0.039 | inactive: 0.008 | inactive: 0.023 | inactive: -0.02
CD63 (UniProt P08962) | inactive: -0.079 | inactive: 0.084 | inactive: 0.037 | inactive: -0.036 | inactive: 0.023 | inactive: -0.011 | active: -0.593 | inactive: 0.175 | inactive: 0.073 | inactive: 0.057 | inactive: -0.184 | inactive: 0.023 | inactive: -0.013 | inactive: 0.089 | inactive: -0.101 | inactive: 0.046 | inactive: -0.055 | inactive: 0.01 | inactive: -0.02 | inactive: -0.023
CCDC88A (UniProt Q3V6T2) | inactive: -0.031 | inactive: -0.009 | inactive: 0.02 | inactive: -0.045 | inactive: -0.02 | inactive: 0.015 | inactive: 0.015 | inactive: -0.027 | inactive: 0.005 | inactive: 0.01 | inactive: -0.031 | inactive: -0.001 | inactive: -0.01 | inactive: 0.015 | inactive: 0.008 | inactive: -0.002 | inactive: 0.046 | inactive: 0.011 | inactive: 0.019 | inactive: -0.008
CCDC186 (UniProt Q7Z3E2) | inactive: -0.007 | inactive: 0.069 | inactive: -0.029 | inactive: 0.069 | inactive: 0.031 | inactive: 0.019 | active: 0.332 | inactive: -0.033 | inactive: -0.003 | inactive: -0.054 | inactive: 0.056 | inactive: 0.004 | inactive: 0.062 | inactive: -0.012 | inactive: -0.029 | inactive: 0.067 | inactive: -0.004 | inactive: 0.015 | inactive: 0.004 | inactive: 0.055
CCM2 isoform 2 (UniProt Q9BSQ5) | inactive: -0.043 | inactive: 0.048 | inactive: -0.012 | inactive: 0.039 | inactive: -0.029 | inactive: 0.002 | inactive: -0.052 | inactive: -0.023 | inactive: -0.011 | inactive: 0.085 | inactive: -0.029 | inactive: 0.046 | inactive: 0.011 | inactive: 0.038 | inactive: 0.016 | inactive: -0.036 | inactive: -0.101 | inactive: -0.01 | inactive: 0.044 | inactive: -0.019
CARS isoform 3 (UniProt P49589) | inactive: 0.011 | inactive: 0.004 | inactive: -0.032 | inactive: -0.01 | inactive: -0.052 | inactive: 0.02 | inactive: 0.004 | inactive: -0.029 | inactive: 0.005 | inactive: 0.041 | inactive: 0.006 | inactive: -0.041 | inactive: 0.001 | inactive: -0.013 | inactive: -0.01 | inactive: -0.013 | active: 0.213 | inactive: 0.003 | inactive: -0.005 | inactive: -0.019
CCNDBP1 (UniProt O95273) | inactive: -0.087 | inactive: 0.055 | inactive: 0.046 | inactive: -0.041 | inactive: -0.005 | inactive: 0.071 | inactive: 0.185 | inactive: -0.168 | inactive: 0.026 | inactive: 0.002 | inactive: 0.122 | inactive: -0.015 | inactive: 0.018 | inactive: 0.141 | inactive: 0.063 | inactive: 0.114 | inactive: -0.088 | inactive: -0.093 | inactive: -0.01 | inactive: 0.054
CCDC25 (UniProt Q86WR0) | inactive: -0.033 | inactive: 0.008 | inactive: 0.01 | inactive: 0.027 | inactive: 0.005 | inactive: -0.023 | active: 0.581 | inactive: -0.079 | inactive: 0.007 | inactive: -0.009 | inactive: 0.132 | inactive: 0 | inactive: -0.012 | inactive: -0.025 | inactive: 0.075 | inactive: 0.008 | inactive: 0.083 | inactive: -0.027 | inactive: -0.005 | inactive: 0.01
CCDC88C (UniProt Q9P219) | inactive: 0.028 | inactive: 0.047 | inactive: 0.282 | inactive: 0.213 | inactive: -0.061 | inactive: 0.011 | inactive: -0.023 | inactive: 0.018 | inactive: -0.079 | inactive: -0.014 | inactive: -0.06 | inactive: -0.014 | inactive: 0.153 | inactive: 0.057 | inactive: -0.07 | inactive: -0.347 | inactive: 0.256 | inactive: 0.079 | inactive: 0.108 | inactive: -0.03
CBX5 (UniProt P45973) | inactive: 0.028 | inactive: 0.026 | inactive: -0.025 | inactive: 0.018 | inactive: 0.016 | inactive: -0.073 | active: -0.215 | inactive: 0.066 | inactive: 0.001 | inactive: 0.016 | inactive: -0.07 | inactive: 0.037 | inactive: 0.073 | inactive: -0.011 | inactive: 0.021 | inactive: -0.035 | inactive: -0.007 | inactive: -0.054 | inactive: 0.021 | inactive: 0.009
CD151 (UniProt P48509) | inactive: -0.01 | inactive: 0.024 | inactive: 0.038 | inactive: 0.037 | inactive: 0.015 | inactive: -0.005 | inactive: -0.211 | inactive: 0.05 | inactive: 0.063 | inactive: 0.169 | inactive: -0.206 | inactive: -0.029 | inactive: -0.011 | inactive: -0.005 | inactive: 0.028 | inactive: -0.05 | inactive: -0.031 | inactive: -0.018 | inactive: -0.001 | inactive: 0.299
CCDC28A (UniProt Q8IWP9) | inactive: 0.015 | inactive: 0.019 | inactive: -0.008 | inactive: 0.11 | inactive: -0.055 | inactive: -0.062 | inactive: 0.112 | inactive: -0.042 | inactive: -0.038 | inactive: 0.03 | inactive: -0.007 | inactive: 0.039 | inactive: 0.01 | inactive: 0.061 | inactive: 0.018 | inactive: 0.051 | inactive: -0.048 | inactive: -0.026 | inactive: -0.007 | inactive: 0
CAVIN2 (UniProt O95810) | inactive: -0.011 | inactive: -0.006 | inactive: 0.003 | inactive: 0.041 | inactive: 0.026 | inactive: 0.002 | inactive: -0.038 | inactive: 0.04 | inactive: 0.013 | inactive: -0.005 | inactive: 0.015 | inactive: 0.052 | inactive: -0.004 | inactive: 0.011 | inactive: 0.04 | inactive: 0.028 | inactive: -0.046 | inactive: 0.009 | inactive: -0.004 | inactive: -0.007
CC2D1A (UniProt Q6P1N0) | inactive: -0.033 | inactive: 0.015 | inactive: 0.05 | inactive: 0.05 | inactive: -0.032 | inactive: -0.009 | inactive: 0.242 | inactive: -0.036 | inactive: 0.019 | inactive: 0.026 | inactive: -0.052 | inactive: -0.022 | inactive: 0.014 | inactive: -0.041 | inactive: 0.022 | inactive: 0.017 | inactive: -0.061 | inactive: 0 | inactive: -0.007 | inactive: -0.02

Record cards, from the list above. Values in the order: log2 fold change (vemurafenib)	log2 fold change [1]	log2 fold change (barasertib)	log2 fold change [2]	log2 fold change (volasertib)	log2 fold change [3]	log2 fold change [4]	log2 fold change [5]	log2 fold change (saracatinib)	log2 fold change (sotrastaurin)	log2 fold change (alvocidib)	log2 fold change (Tubastatin A)	log2 fold change [6]	log2 fold change (defactinib)	log2 fold change [7]	log2 fold change (encorafenib)	log2 fold change [8]	log2 fold change (alisertib)	log2 fold change [9]	log2 fold change (gefitinib)
CAVIN2 (UniProt O95810) as listed: inactive: -0.011	inactive: -0.006	inactive: 0.003	inactive: 0.041	inactive: 0.026	inactive: 0.002	inactive: -0.038	inactive: 0.04	inactive: 0.013	inactive: -0.005	inactive: 0.015	inactive: 0.052	inactive: -0.004	inactive: 0.011	inactive: 0.04	inactive: 0.028	inactive: -0.046	inactive: 0.009	inactive: -0.004	inactive: -0.007
CARS isoform 3 (UniProt P49589) as listed: inactive: 0.011	inactive: 0.004	inactive: -0.032	inactive: -0.01	inactive: -0.052	inactive: 0.02	inactive: 0.004	inactive: -0.029	inactive: 0.005	inactive: 0.041	inactive: 0.006	inactive: -0.041	inactive: 0.001	inactive: -0.013	inactive: -0.01	inactive: -0.013	active: 0.213	inactive: 0.003	inactive: -0.005	inactive: -0.019
